Measurements from publication PMC6156606.

Chains of the proteins cited; added tags and fusions are not shown.
UniProt Q9UI95: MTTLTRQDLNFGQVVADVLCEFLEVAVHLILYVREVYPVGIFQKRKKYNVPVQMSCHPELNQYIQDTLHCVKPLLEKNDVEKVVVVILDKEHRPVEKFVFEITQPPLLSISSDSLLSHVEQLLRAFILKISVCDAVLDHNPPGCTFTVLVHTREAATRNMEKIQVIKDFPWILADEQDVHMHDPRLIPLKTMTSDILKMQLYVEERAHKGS
UniProt P49005: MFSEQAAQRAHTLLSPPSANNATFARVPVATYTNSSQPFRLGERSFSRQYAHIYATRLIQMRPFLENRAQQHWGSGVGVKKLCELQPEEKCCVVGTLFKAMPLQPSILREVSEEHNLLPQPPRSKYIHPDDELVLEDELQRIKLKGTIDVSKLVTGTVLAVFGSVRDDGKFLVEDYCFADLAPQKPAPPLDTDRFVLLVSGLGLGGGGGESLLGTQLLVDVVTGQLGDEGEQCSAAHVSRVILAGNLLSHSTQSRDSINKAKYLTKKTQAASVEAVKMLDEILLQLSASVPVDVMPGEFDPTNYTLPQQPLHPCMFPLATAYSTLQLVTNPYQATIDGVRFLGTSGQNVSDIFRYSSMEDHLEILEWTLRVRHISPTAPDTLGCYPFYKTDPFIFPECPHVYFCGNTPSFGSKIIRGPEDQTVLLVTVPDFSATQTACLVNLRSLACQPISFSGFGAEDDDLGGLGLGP
UniProt O60673: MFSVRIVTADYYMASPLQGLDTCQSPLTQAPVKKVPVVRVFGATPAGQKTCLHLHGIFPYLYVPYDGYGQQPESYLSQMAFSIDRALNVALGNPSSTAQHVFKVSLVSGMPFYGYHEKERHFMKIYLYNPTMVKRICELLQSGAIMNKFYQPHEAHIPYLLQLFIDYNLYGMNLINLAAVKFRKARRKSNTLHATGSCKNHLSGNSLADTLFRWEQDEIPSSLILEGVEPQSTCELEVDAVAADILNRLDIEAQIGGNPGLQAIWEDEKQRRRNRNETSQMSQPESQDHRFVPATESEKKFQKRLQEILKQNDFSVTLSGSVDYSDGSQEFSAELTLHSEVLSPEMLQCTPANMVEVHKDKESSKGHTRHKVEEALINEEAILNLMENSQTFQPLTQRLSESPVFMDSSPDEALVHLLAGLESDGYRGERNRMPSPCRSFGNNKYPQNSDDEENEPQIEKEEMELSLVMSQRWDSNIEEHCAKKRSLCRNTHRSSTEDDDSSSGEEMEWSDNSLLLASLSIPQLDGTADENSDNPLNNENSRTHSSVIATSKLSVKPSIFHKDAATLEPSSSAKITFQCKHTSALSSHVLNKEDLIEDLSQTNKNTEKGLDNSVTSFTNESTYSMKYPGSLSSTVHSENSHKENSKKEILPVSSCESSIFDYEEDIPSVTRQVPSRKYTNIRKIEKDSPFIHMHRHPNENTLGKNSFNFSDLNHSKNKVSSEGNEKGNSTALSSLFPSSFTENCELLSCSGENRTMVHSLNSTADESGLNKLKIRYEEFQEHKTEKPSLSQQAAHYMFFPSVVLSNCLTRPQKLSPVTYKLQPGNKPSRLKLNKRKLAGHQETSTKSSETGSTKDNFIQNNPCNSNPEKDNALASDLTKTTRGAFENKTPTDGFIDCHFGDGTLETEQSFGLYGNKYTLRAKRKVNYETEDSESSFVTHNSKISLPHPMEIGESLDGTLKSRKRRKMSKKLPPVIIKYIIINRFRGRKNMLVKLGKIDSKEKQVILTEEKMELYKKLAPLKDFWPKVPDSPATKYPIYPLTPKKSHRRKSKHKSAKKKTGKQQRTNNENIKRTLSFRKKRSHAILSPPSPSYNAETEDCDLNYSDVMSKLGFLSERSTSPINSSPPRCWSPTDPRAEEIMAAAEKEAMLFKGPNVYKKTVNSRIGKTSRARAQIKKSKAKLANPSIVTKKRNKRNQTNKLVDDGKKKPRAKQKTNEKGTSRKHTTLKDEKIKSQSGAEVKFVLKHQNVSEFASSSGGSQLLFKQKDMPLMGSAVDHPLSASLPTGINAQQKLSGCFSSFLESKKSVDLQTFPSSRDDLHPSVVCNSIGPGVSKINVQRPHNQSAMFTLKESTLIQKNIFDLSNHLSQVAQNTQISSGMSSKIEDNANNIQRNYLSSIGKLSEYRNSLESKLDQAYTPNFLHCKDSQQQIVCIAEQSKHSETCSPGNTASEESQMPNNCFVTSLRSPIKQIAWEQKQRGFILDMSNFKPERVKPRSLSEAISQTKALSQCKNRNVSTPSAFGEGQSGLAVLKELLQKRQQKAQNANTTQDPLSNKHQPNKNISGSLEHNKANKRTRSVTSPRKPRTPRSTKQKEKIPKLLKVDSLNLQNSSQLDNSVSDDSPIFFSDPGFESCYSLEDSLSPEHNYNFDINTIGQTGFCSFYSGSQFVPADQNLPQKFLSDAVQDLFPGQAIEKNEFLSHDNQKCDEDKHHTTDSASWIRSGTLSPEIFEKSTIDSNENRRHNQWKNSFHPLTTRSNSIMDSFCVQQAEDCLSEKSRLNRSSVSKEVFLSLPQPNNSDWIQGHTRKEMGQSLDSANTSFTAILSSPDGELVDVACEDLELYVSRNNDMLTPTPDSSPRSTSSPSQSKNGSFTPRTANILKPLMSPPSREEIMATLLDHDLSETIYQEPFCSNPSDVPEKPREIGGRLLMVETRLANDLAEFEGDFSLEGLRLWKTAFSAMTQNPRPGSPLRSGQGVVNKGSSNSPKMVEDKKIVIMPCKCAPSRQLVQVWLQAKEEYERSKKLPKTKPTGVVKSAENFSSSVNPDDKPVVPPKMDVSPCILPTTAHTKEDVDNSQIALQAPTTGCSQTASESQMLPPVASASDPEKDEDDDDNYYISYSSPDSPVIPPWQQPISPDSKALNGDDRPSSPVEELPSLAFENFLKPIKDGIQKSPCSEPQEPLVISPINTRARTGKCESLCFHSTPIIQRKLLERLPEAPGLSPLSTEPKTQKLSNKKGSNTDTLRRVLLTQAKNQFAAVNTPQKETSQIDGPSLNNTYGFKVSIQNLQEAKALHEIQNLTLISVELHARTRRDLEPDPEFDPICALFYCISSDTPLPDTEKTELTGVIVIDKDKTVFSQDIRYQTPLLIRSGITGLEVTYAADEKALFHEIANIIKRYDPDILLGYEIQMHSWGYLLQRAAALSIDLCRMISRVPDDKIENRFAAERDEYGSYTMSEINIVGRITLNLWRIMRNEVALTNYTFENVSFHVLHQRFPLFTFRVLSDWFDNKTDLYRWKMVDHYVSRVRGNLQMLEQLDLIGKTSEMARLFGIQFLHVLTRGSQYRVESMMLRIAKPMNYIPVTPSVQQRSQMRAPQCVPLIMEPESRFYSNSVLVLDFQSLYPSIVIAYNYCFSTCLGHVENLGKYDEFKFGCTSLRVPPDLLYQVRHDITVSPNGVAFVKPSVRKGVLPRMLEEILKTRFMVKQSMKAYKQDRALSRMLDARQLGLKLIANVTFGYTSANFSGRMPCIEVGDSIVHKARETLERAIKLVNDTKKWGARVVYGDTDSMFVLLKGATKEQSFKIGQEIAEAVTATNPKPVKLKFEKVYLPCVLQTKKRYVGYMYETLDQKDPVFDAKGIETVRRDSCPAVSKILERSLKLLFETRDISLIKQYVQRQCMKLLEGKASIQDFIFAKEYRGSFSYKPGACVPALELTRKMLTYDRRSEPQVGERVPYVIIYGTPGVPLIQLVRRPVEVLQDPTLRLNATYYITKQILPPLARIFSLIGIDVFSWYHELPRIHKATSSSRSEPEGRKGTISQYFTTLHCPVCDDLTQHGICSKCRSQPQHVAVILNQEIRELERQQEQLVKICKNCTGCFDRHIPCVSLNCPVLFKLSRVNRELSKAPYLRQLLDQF
UniProt Q5UIP0: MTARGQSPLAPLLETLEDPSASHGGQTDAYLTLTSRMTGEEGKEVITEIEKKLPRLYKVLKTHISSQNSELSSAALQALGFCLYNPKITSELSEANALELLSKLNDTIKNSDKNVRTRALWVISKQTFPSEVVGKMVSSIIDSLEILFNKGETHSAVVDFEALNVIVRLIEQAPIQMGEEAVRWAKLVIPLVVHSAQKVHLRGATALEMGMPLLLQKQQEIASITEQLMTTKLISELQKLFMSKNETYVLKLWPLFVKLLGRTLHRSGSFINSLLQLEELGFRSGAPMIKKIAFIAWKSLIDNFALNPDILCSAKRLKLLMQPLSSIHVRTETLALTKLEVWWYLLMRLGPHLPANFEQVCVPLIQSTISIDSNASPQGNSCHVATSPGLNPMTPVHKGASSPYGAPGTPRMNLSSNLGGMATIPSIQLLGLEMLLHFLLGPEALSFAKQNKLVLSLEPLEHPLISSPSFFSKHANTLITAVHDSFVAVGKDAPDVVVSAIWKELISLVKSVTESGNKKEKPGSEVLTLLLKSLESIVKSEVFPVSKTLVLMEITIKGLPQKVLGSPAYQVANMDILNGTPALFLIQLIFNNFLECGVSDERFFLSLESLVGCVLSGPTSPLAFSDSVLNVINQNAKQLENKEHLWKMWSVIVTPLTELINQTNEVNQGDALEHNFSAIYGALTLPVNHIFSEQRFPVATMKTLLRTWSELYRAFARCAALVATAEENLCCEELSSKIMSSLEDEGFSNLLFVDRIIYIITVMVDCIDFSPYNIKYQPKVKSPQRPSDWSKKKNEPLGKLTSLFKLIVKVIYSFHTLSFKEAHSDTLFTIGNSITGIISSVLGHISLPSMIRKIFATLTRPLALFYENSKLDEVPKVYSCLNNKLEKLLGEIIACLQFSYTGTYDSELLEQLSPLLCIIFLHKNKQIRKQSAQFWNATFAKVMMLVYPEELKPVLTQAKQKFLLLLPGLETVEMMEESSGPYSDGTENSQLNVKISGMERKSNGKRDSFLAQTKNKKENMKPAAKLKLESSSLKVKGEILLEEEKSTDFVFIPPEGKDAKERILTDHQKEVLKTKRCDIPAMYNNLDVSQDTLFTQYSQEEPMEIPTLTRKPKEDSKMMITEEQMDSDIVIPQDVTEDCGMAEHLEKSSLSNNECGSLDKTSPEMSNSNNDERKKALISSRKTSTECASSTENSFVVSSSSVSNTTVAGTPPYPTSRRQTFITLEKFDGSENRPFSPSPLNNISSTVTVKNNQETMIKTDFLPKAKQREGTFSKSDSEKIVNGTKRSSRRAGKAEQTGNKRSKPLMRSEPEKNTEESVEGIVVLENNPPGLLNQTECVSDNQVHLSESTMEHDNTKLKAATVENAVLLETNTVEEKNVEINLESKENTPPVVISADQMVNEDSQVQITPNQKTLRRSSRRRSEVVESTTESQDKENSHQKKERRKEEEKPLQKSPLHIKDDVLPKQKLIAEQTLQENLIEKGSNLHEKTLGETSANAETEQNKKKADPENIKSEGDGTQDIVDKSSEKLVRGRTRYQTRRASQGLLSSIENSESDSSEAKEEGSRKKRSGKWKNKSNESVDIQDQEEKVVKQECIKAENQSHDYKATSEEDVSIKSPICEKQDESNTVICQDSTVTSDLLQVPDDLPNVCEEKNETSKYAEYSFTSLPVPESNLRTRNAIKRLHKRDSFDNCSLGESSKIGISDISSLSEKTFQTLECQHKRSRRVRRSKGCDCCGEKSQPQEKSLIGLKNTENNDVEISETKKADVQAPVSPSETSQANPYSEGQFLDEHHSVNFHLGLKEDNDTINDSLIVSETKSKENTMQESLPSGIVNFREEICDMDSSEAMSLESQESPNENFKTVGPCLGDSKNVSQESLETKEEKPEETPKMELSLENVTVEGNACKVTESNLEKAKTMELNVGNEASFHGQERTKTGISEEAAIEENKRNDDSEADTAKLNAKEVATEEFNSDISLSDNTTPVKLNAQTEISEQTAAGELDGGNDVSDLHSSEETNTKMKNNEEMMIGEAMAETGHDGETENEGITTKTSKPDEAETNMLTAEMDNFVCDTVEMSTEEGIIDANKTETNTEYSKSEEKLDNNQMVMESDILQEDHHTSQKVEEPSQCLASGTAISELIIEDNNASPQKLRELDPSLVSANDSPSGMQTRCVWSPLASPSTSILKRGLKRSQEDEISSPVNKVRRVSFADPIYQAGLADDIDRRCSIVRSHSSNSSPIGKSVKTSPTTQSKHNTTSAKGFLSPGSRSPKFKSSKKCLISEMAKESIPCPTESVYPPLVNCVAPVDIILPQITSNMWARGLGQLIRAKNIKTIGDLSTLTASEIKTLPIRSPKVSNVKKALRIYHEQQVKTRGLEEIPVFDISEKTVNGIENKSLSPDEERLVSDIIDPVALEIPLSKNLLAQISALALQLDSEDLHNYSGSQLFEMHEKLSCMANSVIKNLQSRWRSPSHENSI

Key:
Experiment in all cases: affinity purification with mass spectrometry; FLAG-tagged bait transiently expressed in HEK293 suspension cells; NTEN lysis (150 mM NaCl, 0.5% NP40, pH 7.5); anti-Flag M2 agarose 3–4 h at 4 °C; eluted with 3XFlag peptide; SDS-PAGE and mass spectrometry
FLAG-REV7 (human) [1] = target: FLAG-REV7 (human) (UniProt Q9UI95)
[2] = target: T1, FLAG-tagged C20ORF196 (human) (UniProt Q8IYI0)
T1 sequence: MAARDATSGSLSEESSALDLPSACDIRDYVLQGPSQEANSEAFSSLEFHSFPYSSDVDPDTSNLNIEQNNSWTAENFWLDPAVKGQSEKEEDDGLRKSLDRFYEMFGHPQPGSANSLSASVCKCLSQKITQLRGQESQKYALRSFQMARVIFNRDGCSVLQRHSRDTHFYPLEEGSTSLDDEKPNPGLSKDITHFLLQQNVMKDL

[3] = target: T2, FLAG-tagged FAM35A (human) (UniProt Q86V20)
T2 sequence: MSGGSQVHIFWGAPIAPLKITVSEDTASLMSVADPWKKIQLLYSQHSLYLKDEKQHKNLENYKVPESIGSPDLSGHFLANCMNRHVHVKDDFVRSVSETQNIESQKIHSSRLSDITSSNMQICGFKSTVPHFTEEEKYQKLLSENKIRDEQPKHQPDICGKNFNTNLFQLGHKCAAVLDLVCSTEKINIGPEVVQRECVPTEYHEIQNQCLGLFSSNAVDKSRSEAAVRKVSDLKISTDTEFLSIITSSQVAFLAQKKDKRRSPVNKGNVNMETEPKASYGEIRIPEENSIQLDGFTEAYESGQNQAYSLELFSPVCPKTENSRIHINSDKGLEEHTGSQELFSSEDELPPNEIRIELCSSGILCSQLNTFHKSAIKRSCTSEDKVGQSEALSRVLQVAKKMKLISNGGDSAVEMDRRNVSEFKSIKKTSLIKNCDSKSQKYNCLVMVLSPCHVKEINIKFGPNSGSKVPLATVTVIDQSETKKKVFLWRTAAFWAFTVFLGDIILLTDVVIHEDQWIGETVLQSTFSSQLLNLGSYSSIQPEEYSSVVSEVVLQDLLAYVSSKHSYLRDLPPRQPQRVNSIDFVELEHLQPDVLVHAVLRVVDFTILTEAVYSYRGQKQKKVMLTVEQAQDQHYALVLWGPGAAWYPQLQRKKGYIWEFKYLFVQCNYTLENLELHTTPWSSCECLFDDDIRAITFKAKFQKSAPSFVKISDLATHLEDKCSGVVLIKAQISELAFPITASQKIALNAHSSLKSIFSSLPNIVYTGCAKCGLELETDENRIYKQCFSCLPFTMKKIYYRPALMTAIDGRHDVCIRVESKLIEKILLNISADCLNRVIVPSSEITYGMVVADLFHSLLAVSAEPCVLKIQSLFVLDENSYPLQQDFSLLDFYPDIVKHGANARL

FLAG-REV7 (human) [4] = target: FLAG-REV7 (human) (UniProt Q9UI95); remark: listed apart in the source
[5] = target: T1, FLAG-tagged C20ORF196 (human); remark: listed apart in the source
[6] = target: T2, FLAG-tagged FAM35A (human); remark: listed apart in the source

For POLD2 (from UniProt P49005 1-469), the binding (FLAG-REV7 (human) [1]) was “binds”, the binding [2] was “no binding” and the binding [3] was “no binding”.

REV3L (from UniProt O60673 1-3130) was tested, and the binding (FLAG-REV7 (human) [1]) was “binds”, the binding [2] was “no binding” and the binding [3] was “no binding”.

For REV7 (from UniProt Q9UI95 1-211), the binding [2] was “binds” and the binding [3] was “binds”.

In the case of RIF1 (from UniProt Q5UIP0 1-2472), the binding (FLAG-REV7 (human) [1]) is reported as “binds”, the binding [2] is reported as “binds” and the binding [3] is reported as “binds”.

B1: FAM35A (protein, UniProt Q86V20-2 1-904)
chain: T2 sequence
B1 was tested, and the binding (FLAG-REV7 (human) [4]) was “binds” and the binding [5] was “binds”.

B2: C20ORF196 (protein, UniProt Q8IYI0 1-205)
chain: T1 sequence
In the case of B2, the binding (FLAG-REV7 (human) [4]) is reported as “binds” and the binding [6] is reported as “binds”.

B3: POLD3 (protein, UniProt Q15054 1-466)
chain: MADQLYLENIDEFVTDQNKIVTYKWLSYTLGVHVNQAKQMLYDYVERKRKENSGAQLHVTYLVSGSLIQNGHSCHKVAVVREDKLEAVKSKLAVTASIHVYSIQKAMLKDSGPLFNTDYDILKSNLQNCSKFSAIQCAAAVPRAPAESSSSSKKFEQSHLHMSSETQANNELTTNGHGPPASKQVSQQPKGIMGMFASKAAAKTQETNKETKTEAKEVTNASAAGNKAPGKGNMMSNFFGKAAMNKFKVNLDSEQAVKEEKIVEQPTVSVTEPKLATPAGLKKSSKKAEPVKVLQKEKKRGKRVALSDDETKETENMRKKRRRIKLPESDSSEDEVFPDSPGAYEAESPSPPPPPSPPLEPVPKTEPEPPSVKSSSGENKRKRKRVLKSKTYLDGEGCIVTEKVYESESCTDSEEELNMKTSSVHRPPAMTVKKEPREERKGPKKGTAALGKANRQVSITGFFQRK
For B3, the binding (FLAG-REV7 (human) [4]) was “binds”, the binding [5] was “no binding” and the binding [6] was “no binding”.

Read-outs that look alike come from different tables or passages of the source. No constants are given. Whether binding was seen depends on the method and setting. Binding seen in cells or lysates may run through a third protein. These calls come from enrichment with a bait or labelling near it, and not all partners need be listed. For part of these data: A no says only that the protein was not detected with the bait. For part of these data: Where a sequence is shown, tags or fusion partners need not be part of it.
